{"source": "the supplement of paper PMC8728848", "binders": {"B1": {"name": "Epa3to2 (Candida glabrata) (protein)", "chain": "MGSSHHHHHHSSGLVPRGSHMKRELSSQNPFGYPIGCSPQDVAIIPGLTMELYSYPIVSGTPPNCYDASYVDPEYPRTGYLKRKMVGKSTGVTGNLNYKYSVEKACMVKYGNLPAGYNYNEPLTVSNFTMILYGYFKAQTTGLHTFFVNADDLLYINFGAGNAFDCCKREDSKTKLGEYVAYDIWHVDSSKNKVSLFLEKDLYYPIRMFFNNRDNNSSLDLSFSVNGATDQISDFSGYLYSVPDQPDTCPAHIGYDTTCR"}}, "assay_in_all_cases": "glycan array binding signal (z-score within array); higher = stronger binding", "details_in_all_cases": "glycan notation: IUPAC condensed, linker removed", "key": {"[1]": {"molecular_target": "Fuc(a1-3)[Gal3S(b1-4)]GlcNAc6S", "method_in_brief": "(§1)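 Glycan array data were curated from 3228 arrays in the Consortium for Functional Glycomics database and kept only where the protein sequence was available. Glycan names were converted to IUPAC-condensed notation, and columns mapping to the same glycan were averaged. The binding signal is a within-array Z-score, averaged across arrays of the same protein sequence at different concentrations or buffers and across linkers. Negative Z-scores can be read as non-binding.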"}, "[2]": {"molecular_target": "Fuc(a1-3)[GalNAc(b1-4)]GlcNAc", "method_in_brief": "as §1"}, "[3]": {"molecular_target": "Fuc(a1-3)[GalNAc(b1-4)]GlcNAc6S", "method_in_brief": "as §1"}, "Fuc(a1-4)GlcNAc": {"molecular_target": "Fuc(a1-4)GlcNAc", "method_in_brief": "as §1"}, "Fuc(b1-3)GlcNAc": {"molecular_target": "Fuc(b1-3)GlcNAc", "method_in_brief": "as §1"}, "Gal(a1-2)Gal": {"molecular_target": "Gal(a1-2)Gal", "method_in_brief": "as §1"}, "Gal(a1-3)Gal": {"molecular_target": "Gal(a1-3)Gal", "method_in_brief": "as §1"}, "Gal(a1-3)Gal(b1-3)GlcNAc": {"molecular_target": "Gal(a1-3)Gal(b1-3)GlcNAc", "method_in_brief": "as §1"}, "[4]": {"molecular_target": "Gal(a1-3)Gal(b1-3)GlcNAc(b1-2)Man", "method_in_brief": "as §1"}, "[5]": {"molecular_target": "Gal(a1-3)Gal(b1-3)GlcNAc(b1-2)Man(a1-3)[Gal(a1-3)Gal(b1-3)GlcNAc(b1-2)Man(a1-6)]Man(b1-4)GlcNAc(b1-4)GlcNAc", "method_in_brief": "as §1"}, "[6]": {"molecular_target": "Gal(a1-3)Gal(b1-3)GlcNAc(b1-3)GalNAc", "method_in_brief": "as §1"}, "[7]": {"molecular_target": "Gal(a1-3)Gal(b1-3)GlcNAc(b1-6)GalNAc", "method_in_brief": "as §1"}, "[8]": {"molecular_target": "Gal(a1-3)Gal(b1-3)[Fuc(a1-4)]GlcNAc(b1-2)Man(a1-3)[Gal(a1-3)Gal(b1-3)[Fuc(a1-4)]GlcNAc(b1-2)Man(a1-6)]Man(b1-4)GlcNAc(b1-4)GlcNAc", "method_in_brief": "as §1"}, "Gal(a1-3)Gal(b1-4)Glc": {"molecular_target": "Gal(a1-3)Gal(b1-4)Glc", "method_in_brief": "as §1"}, "Gal(a1-3)Gal(b1-4)GlcNAc": {"molecular_target": "Gal(a1-3)Gal(b1-4)GlcNAc", "method_in_brief": "as §1"}, "[9]": {"molecular_target": "Gal(a1-3)Gal(b1-4)GlcNAc(b1-2)Man", "method_in_brief": "as §1"}, "[10]": {"molecular_target": "Gal(a1-3)Gal(b1-4)GlcNAc(b1-2)Man(a1-3)[Gal(a1-3)Gal(b1-4)GlcNAc(b1-2)Man(a1-6)]Man(b1-4)GlcNAc(b1-4)GlcNAc", "method_in_brief": "as §1"}, "[11]": {"molecular_target": "Gal(a1-3)Gal(b1-4)GlcNAc(b1-3)GalNAc", "method_in_brief": "as §1"}, "[12]": {"molecular_target": "Gal(a1-3)Gal(b1-4)GlcNAc(b1-6)GalNAc", "method_in_brief": "as §1"}, "[13]": {"molecular_target": "Gal(a1-3)Gal(b1-4)[Fuc(a1-3)]GlcNAc", "method_in_brief": "as §1"}, "[14]": {"molecular_target": "Gal(a1-3)Gal(b1-4)[Fuc(a1-3)]GlcNAc(b1-2)Man(a1-3)[Gal(a1-3)Gal(b1-4)[Fuc(a1-3)]GlcNAc(b1-2)Man(a1-6)]Man(b1-4)GlcNAc(b1-4)GlcNAc", "method_in_brief": "as §1"}, "Gal(a1-3)GalNAc": {"molecular_target": "Gal(a1-3)GalNAc", "method_in_brief": "as §1"}, "[15]": {"molecular_target": "Gal(a1-3)[Gal(a1-4)]Gal(b1-4)GlcNAc", "method_in_brief": "as §1"}, "[16]": {"molecular_target": "Gal(a1-4)Gal(b1-3)GlcNAc(b1-2)Man(a1-3)[Gal(a1-4)Gal(b1-3)GlcNAc(b1-2)Man(a1-6)]Man(b1-4)GlcNAc(b1-4)GlcNAc", "method_in_brief": "as §1"}, "Gal(a1-4)Gal(b1-4)Glc": {"molecular_target": "Gal(a1-4)Gal(b1-4)Glc", "method_in_brief": "as §1"}, "Gal(a1-4)Gal(b1-4)GlcNAc": {"molecular_target": "Gal(a1-4)Gal(b1-4)GlcNAc", "method_in_brief": "as §1"}, "[17]": {"molecular_target": "Gal(a1-4)Gal(b1-4)GlcNAc(b1-2)Man(a1-3)[Gal(a1-4)Gal(b1-4)GlcNAc(b1-2)Man(a1-6)]Man(b1-4)GlcNAc(b1-4)GlcNAc", "method_in_brief": "as §1"}, "[18]": {"molecular_target": "Gal(a1-4)Gal(b1-4)GlcNAc(b1-3)Gal(b1-4)Glc", "method_in_brief": "as §1"}, "Gal(a1-4)GlcNAc": {"molecular_target": "Gal(a1-4)GlcNAc", "method_in_brief": "as §1"}, "Gal(a1-6)Glc": {"molecular_target": "Gal(a1-6)Glc", "method_in_brief": "as §1"}, "Gal(b1-2)Gal": {"molecular_target": "Gal(b1-2)Gal", "method_in_brief": "as §1"}, "Gal(b1-3)Gal": {"molecular_target": "Gal(b1-3)Gal", "method_in_brief": "as §1"}, "Gal(b1-3)Gal(b1-4)GlcNAc": {"molecular_target": "Gal(b1-3)Gal(b1-4)GlcNAc", "method_in_brief": "as §1"}, "Gal(b1-3)GalNAc": {"molecular_target": "Gal(b1-3)GalNAc", "method_in_brief": "as §1"}, "[19]": {"molecular_target": "Gal(b1-3)GalNAc(a1-3)[Fuc(a1-2)]Gal(b1-4)Glc", "method_in_brief": "as §1"}, "[20]": {"molecular_target": "Gal(b1-3)GalNAc(a1-3)[Fuc(a1-2)]Gal(b1-4)GlcNAc", "method_in_brief": "as §1"}, "Gal(b1-3)GalNAc(b1-3)Gal": {"molecular_target": "Gal(b1-3)GalNAc(b1-3)Gal", "method_in_brief": "as §1"}, "[21]": {"molecular_target": "Gal(b1-3)GalNAc(b1-3)Gal(a1-4)Gal(b1-4)Glc", "method_in_brief": "as §1"}, "[22]": {"molecular_target": "Gal(b1-3)GalNAc(b1-4)Gal(b1-4)Glc", "method_in_brief": "as §1"}, "[23]": {"molecular_target": "Gal(b1-3)GalNAc(b1-4)[Neu5Ac(a2-3)]Gal(b1-4)Glc", "method_in_brief": "as §1"}, "Gal(b1-3)GlcNAc": {"molecular_target": "Gal(b1-3)GlcNAc", "method_in_brief": "as §1"}, "[24]": {"molecular_target": "Gal(b1-3)GlcNAc(a1-3)Gal(b1-4)GlcNAc", "method_in_brief": "as §1"}, "[25]": {"molecular_target": "Gal(b1-3)GlcNAc(a1-6)Gal(b1-4)GlcNAc", "method_in_brief": "as §1"}, "Gal(b1-3)GlcNAc(b1-2)Man": {"molecular_target": "Gal(b1-3)GlcNAc(b1-2)Man", "method_in_brief": "as §1"}, "[26]": {"molecular_target": "Gal(b1-3)GlcNAc(b1-2)Man(a1-3)[Gal(b1-3)GlcNAc(b1-2)Man(a1-6)]Man(b1-4)GlcNAc(b1-4)GlcNAc", "method_in_brief": "as §1"}}, "note": "This is one part of the list."}
{"binder": "B1", "values": [{"measurement": "glycan array binding signal (z-score)", "setting": "[1]", "value": 1.15}, {"measurement": "glycan array binding signal (z-score)", "setting": "[2]", "value": 0.716}, {"measurement": "glycan array binding signal (z-score)", "setting": "[3]", "value": -0.7}, {"measurement": "glycan array binding signal (z-score)", "setting": "Fuc(a1-4)GlcNAc", "value": 1.4}, {"measurement": "glycan array binding signal (z-score)", "setting": "Fuc(b1-3)GlcNAc", "value": -0.719}, {"measurement": "glycan array binding signal (z-score)", "setting": "Gal(a1-2)Gal", "value": -0.962}, {"measurement": "glycan array binding signal (z-score)", "setting": "Gal(a1-3)Gal", "value": 0.6}, {"measurement": "glycan array binding signal (z-score)", "setting": "Gal(a1-3)Gal(b1-3)GlcNAc", "value": -0.139}, {"measurement": "glycan array binding signal (z-score)", "setting": "[4]", "value": -0.118}, {"measurement": "glycan array binding signal (z-score)", "setting": "[5]", "value": 0.351}, {"measurement": "glycan array binding signal (z-score)", "setting": "[6]", "value": 0.158}, {"measurement": "glycan array binding signal (z-score)", "setting": "[7]", "value": 0.109}, {"measurement": "glycan array binding signal (z-score)", "setting": "[8]", "value": -0.734}, {"measurement": "glycan array binding signal (z-score)", "setting": "Gal(a1-3)Gal(b1-4)Glc", "value": -0.693}, {"measurement": "glycan array binding signal (z-score)", "setting": "Gal(a1-3)Gal(b1-4)GlcNAc", "value": -0.462}, {"measurement": "glycan array binding signal (z-score)", "setting": "[9]", "value": -0.911}, {"measurement": "glycan array binding signal (z-score)", "setting": "[10]", "value": -0.05}, {"measurement": "glycan array binding signal (z-score)", "setting": "[11]", "value": 0.51}, {"measurement": "glycan array binding signal (z-score)", "setting": "[12]", "value": 0.403}, {"measurement": "glycan array binding signal (z-score)", "setting": "[13]", "value": -0.662}, {"measurement": "glycan array binding signal (z-score)", "setting": "[14]", "value": 0.812}, {"measurement": "glycan array binding signal (z-score)", "setting": "Gal(a1-3)GalNAc", "value": -0.609}, {"measurement": "glycan array binding signal (z-score)", "setting": "[15]", "value": 0.19}, {"measurement": "glycan array binding signal (z-score)", "setting": "[16]", "value": 1.14}, {"measurement": "glycan array binding signal (z-score)", "setting": "Gal(a1-4)Gal(b1-4)Glc", "value": 0.552}, {"measurement": "glycan array binding signal (z-score)", "setting": "Gal(a1-4)Gal(b1-4)GlcNAc", "value": 0.54}, {"measurement": "glycan array binding signal (z-score)", "setting": "[17]", "value": 1.02}, {"measurement": "glycan array binding signal (z-score)", "setting": "[18]", "value": -0.122}, {"measurement": "glycan array binding signal (z-score)", "setting": "Gal(a1-4)GlcNAc", "value": 0.908}, {"measurement": "glycan array binding signal (z-score)", "setting": "Gal(a1-6)Glc", "value": -0.555}, {"measurement": "glycan array binding signal (z-score)", "setting": "Gal(b1-2)Gal", "value": -0.498}, {"measurement": "glycan array binding signal (z-score)", "setting": "Gal(b1-3)Gal", "value": 1.43}, {"measurement": "glycan array binding signal (z-score)", "setting": "Gal(b1-3)Gal(b1-4)GlcNAc", "value": -0.279}, {"measurement": "glycan array binding signal (z-score)", "setting": "Gal(b1-3)GalNAc", "value": 0.472}, {"measurement": "glycan array binding signal (z-score)", "setting": "[19]", "value": 0.116}, {"measurement": "glycan array binding signal (z-score)", "setting": "[20]", "value": 0.294}, {"measurement": "glycan array binding signal (z-score)", "setting": "Gal(b1-3)GalNAc(b1-3)Gal", "value": -0.825}, {"measurement": "glycan array binding signal (z-score)", "setting": "[21]", "value": 0.664}, {"measurement": "glycan array binding signal (z-score)", "setting": "[22]", "value": 1.46}, {"measurement": "glycan array binding signal (z-score)", "setting": "[23]", "value": -0.383}, {"measurement": "glycan array binding signal (z-score)", "setting": "Gal(b1-3)GlcNAc", "value": -0.751}, {"measurement": "glycan array binding signal (z-score)", "setting": "[24]", "value": -0.807}, {"measurement": "glycan array binding signal (z-score)", "setting": "[25]", "value": 0.817}, {"measurement": "glycan array binding signal (z-score)", "setting": "Gal(b1-3)GlcNAc(b1-2)Man", "value": -0.927}, {"measurement": "glycan array binding signal (z-score)", "setting": "[26]", "value": 1.76}]}
